No constants are given. Whether binding was seen depends on the method and setting. Some results given as binding are weak or reduced against the parent protein; the word gives no strength. Sequences can lack the tags named with a protein.
Target: LovK (fusion to the T25 or T18c fragment of adenylate cyclase) (Caulobacter crescentus) (UniProt Q9ABE3)
Test: two-hybrid; bacterial two-hybrid in E. coli BTH101; kinases fused to the C-terminus of the T25 and T18c fragments of adenylate cyclase; colour of spots on LB agar with X-gal and 0.5 mM IPTG after 36 hours at 30°C

B1: LovK (fusion to the T25 or T18c fragment of adenylate cyclase) (protein, UniProt Q9ABE3 1-368)
chain: MEDYSESRRAGERLAAGHGVDDPFAAAISATRMAMIVADATQPDIPIIFANDAFLRLTGYARDEVIGRNCRFLQGPDTDPKAIQAVRDALAAGEDVAVDLLNYRKDGSPFWNALNMSPVRNDAGQLVYFFGSQVDVTDKKVVELRARDHSDGLQQMVEERTRELTEALKQKTALLHEVDHRVKNNLQLISSLLLLQNRRVPDPAVKASLRGMLGRVNAIATVHRRLFQSEDVERFDVSAFIRDMVADLMGSAMRDDIRVELDLERVEIPAAKAAPLALVVNELLTNALRHGFPEGRGGRIFVGLSRLNGDFRIEITDDGVGQDRETRASGFGLTIVQLLCQQLKAKWETTDAEPGTRVVVLLPINGTQ
Q: For B1, which binding is on record?
A: The binding was “binds”.

From publication PMC6530869
